Assay results: PubChem BioAssay AID2551 (National Center for Advancing Translational Sciences (NCATS), 2010)
The whole screen tested about 310,000 compounds, of which about 17,000 (5.5%) were called active. This list was built around the results that the source calls inconclusive (neither active nor inactive); the mix of calls is not that of the screen. The call rests on the fitted dose curve; in most records, active means well fitted inhibition curve with a large enough effect; inconclusive means small, poorly fitted or top-dose-only effect, or effect the other way; inactive means no such curve, though single readings can be large or run the other way. A potency beside an inconclusive call is a rough fit, not a confirmed value.

The chains behind the UniProt entries cited, without tags or fusion partners. Where a name states a change or a piece, a line headed by the entry shows the natural chain unless it says otherwise.
UniProt P51450: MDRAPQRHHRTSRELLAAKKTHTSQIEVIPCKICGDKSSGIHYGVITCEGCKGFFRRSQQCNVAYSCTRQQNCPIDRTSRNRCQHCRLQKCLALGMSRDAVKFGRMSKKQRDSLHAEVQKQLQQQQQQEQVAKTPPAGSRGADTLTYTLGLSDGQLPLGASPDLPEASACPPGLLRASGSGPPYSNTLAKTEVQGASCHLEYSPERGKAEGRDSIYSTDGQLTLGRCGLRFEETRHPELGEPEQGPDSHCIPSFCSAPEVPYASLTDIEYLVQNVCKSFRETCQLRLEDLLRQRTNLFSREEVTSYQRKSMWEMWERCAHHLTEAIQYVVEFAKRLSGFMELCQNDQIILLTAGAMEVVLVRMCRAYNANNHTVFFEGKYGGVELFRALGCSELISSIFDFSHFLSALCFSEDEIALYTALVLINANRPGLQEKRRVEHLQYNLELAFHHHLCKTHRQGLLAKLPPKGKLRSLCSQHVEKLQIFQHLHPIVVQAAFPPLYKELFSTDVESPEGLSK

The compounds below were run against Nuclear receptor ROR-gamma (Mus musculus) (UniProt P51450) (assay: qHTS for inhibitors of ROR gamma transcriptional activity). Conditions: Drosophila S2 Gal4-RORgamma UAS-luciferase reporter, 20 h; series mostly up to 53.6 µM.
Summary of the method: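 A Gal4/UAS one-hybrid system in insect cells: metallothionein-promoter Gal4–ROR gamma fusion plus Photinus luciferase reporter. Copper sulfate 700 uM final, 20 hr ambient incubation, luminescent detection after 10 min with reagent.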
Further: nearly all actives have a fitted effect of over 60% in size.
Potency means the concentration at half of the fitted maximal effect.

SMILES | Potency
COc1ccccc1CC(=O)Nc1ccc([N+](=O)[O-])cc1O | inconclusive: 17.8 µM [activator, partial curve]
C[C@@H](C(=O)CC(=O)OC(C)(C)C)[C@@H](O)c1ccccc1 | inconclusive: 15.8 µM [activator, single point]
CC(C)c1ccc(N2C(=O)[C@@H]3Cc4ccccc4CN3C2=O)cc1 | inconclusive: 1.58 µM [activator, partial curve, poor fit]
c1ccc(Cn2cc(CSc3ccccc3)nn2)cc1 | inactive
Cc1cccc(NC(=S)Nc2cccc3ccccc23)c1 | active: 7.08 µM
COc1ccc(-c2cc3ccccc3oc2=O)cc1NC(=O)c1ccc(Br)o1 | inconclusive: 35.5 µM [inhibitor, single point]
c1ccn2cc(CSc3nnc4ccccn34)nc2c1 | inactive
CCNC(=O)NC(=O)COC(=O)c1cccc(NS(=O)(=O)/C=C/c2ccccc2)c1 | inconclusive: 12.6 µM [activator, single point]
CCc1ccc(NC(=O)C2=CC(c3ccc(OC)c(OC)c3)=NS(=O)(=O)N2C)cc1 | inconclusive: 35.5 µM [activator, single point]
Cc1ccccc1-n1ncc2c([N+](=O)[O-])cc([N+](=O)[O-])cc21 | inconclusive: 3.16 µM [inhibitor, partial curve]
Cc1ccc(NC(=O)c2cc(S(=O)(=O)N3CCc4ccccc43)cn2C)cc1 | inconclusive: 12.6 µM [activator, single point]
Cc1cccc(OCC(=O)N/N=C\c2cccn2C)c1C | inconclusive: 10 µM [inhibitor, partial curve]
COc1ccc(CC(=O)N(Cc2ccccc2)c2ccc(C)cc2)cc1OC | inactive
O=S(=O)(NCC(c1cccnc1)N1CCOCC1)c1cccs1 (stereo not given) | inconclusive: 5.62 µM [inhibitor, single point]
COc1ccccc1NC(=O)C/C(C)=N/NC(=O)COc1c(Br)cc(Br)cc1OC | inconclusive: 22.4 µM [inhibitor, single point]
S=C(NCCc1ccccn1)Nc1ccccc1Cl | active: 6.31 µM
O=C1N/C(=C/c2ccc(Br)cc2)C(O)=C1C=NCc1ccccc1 | inactive
COc1ccc(/C=C/C(=O)c2cc(O)ccc2O)cc1 | inconclusive: 3.16 µM [inhibitor, single point]
CCC(C)n1ncn(-c2ccc(N3CCN(c4ccc(OCC5COC(Cn6cncn6)(c6ccc(Cl)cc6Cl)O5)cc4)CC3)cc2)c1=O (stereo not given) | inactive
CCOC(=O)C1=C(Nc2ccccc2)CC(C)(O)C(C(=O)OCC)C1c1ccc(Br)cc1 (stereo not given) | inconclusive: 10 µM [activator, single point]

Rewritten as tab-separated lines: part of the list above.
SMILES	Potency
COc1ccccc1NC(=O)C/C(C)=N/NC(=O)COc1c(Br)cc(Br)cc1OC	inconclusive: 22.4 µM [inhibitor, single point]
S=C(NCCc1ccccn1)Nc1ccccc1Cl	active: 6.31 µM
O=C1N/C(=C/c2ccc(Br)cc2)C(O)=C1C=NCc1ccccc1	inactive
COc1ccc(/C=C/C(=O)c2cc(O)ccc2O)cc1	inconclusive: 3.16 µM [inhibitor, single point]
